For at least one entry, the source does not settle the construct or the ends of the probe. At least one verdict was read from the data and is not stated in words by the source.
How the values were obtained:
[1] = target: Gsx2 167-305 I234E (Mus musculus) (UniProt P31316); assay: EMSA; conditions: tau only in figure, EMSA: 35 nM probe, 15 min room temperature, recombinant protein, residues 167-305, protein details: N-terminal His-tag, cleaved with PreScission, label: 5' IRDye700 on complementary strand (linker S14)
[2] = target: Gsx2 167-305 (Mus musculus) (UniProt P31316); assay: EMSA; conditions: not strongly cooperative, tau only in figure; EMSA: 35 nM probe, 15 min room temperature; recombinant protein; residues 167-305; protein details: N-terminal His-tag, cleaved with PreScission; label: 5' IRDye700 on complementary strand (linker S14)

The chains behind the UniProt entries cited, without tags or fusion partners. Residues count along the entry.
UniProt P31316, 167-305 I234E: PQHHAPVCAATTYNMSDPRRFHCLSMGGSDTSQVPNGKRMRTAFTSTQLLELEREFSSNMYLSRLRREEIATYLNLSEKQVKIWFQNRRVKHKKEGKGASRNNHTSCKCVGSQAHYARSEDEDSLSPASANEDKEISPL
UniProt P31316, 167-305: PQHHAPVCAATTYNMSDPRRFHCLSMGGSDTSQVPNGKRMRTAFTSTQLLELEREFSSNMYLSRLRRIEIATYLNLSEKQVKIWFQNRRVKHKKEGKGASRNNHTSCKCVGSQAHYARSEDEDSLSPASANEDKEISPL

| Sequence | binding result ([1]; cooperativity compromised) | binding result [2] | binding result ([1]; not cooperative) |
| --- | --- | --- | --- |
| TCCAACTAATTAAAATTTAATTCGTAGTGCGGGCGTGGCT (double strand) [7bpS / AAATT spacer dimer probe] | binds | – | – |
| TCCAACTAATTAAAGATTTAATTCGTAGTGCGGGCGTGGCT (double strand) [8bpS dimer probe] | – | binds | binds |
